Measurements published in doi:10.1101/764829.

By UniProt entry, the sequences of proteins in these tests, tags left out. Where a name states a change or a piece, a line headed by the entry shows the natural chain unless it says otherwise.
UniProt Q386H7: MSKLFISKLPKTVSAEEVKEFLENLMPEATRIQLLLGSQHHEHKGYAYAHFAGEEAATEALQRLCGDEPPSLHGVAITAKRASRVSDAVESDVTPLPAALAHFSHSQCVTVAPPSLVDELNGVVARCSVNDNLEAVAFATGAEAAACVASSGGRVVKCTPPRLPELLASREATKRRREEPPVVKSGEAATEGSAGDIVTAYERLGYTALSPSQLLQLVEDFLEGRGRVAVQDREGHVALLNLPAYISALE
UniProt Q57ZJ6: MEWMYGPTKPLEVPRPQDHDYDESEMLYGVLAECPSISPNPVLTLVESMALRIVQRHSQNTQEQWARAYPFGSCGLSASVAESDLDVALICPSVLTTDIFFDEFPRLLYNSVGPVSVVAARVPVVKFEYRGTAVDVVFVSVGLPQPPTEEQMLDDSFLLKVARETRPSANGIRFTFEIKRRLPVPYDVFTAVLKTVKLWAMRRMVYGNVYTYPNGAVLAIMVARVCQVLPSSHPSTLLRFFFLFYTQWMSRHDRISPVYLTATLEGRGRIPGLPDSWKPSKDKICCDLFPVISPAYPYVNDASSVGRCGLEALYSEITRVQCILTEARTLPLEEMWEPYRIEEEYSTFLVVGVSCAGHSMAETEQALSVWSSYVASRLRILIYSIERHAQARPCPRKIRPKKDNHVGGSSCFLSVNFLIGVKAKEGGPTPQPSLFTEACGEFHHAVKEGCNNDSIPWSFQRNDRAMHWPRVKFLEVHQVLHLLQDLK

Molecular target: KKIP12 (Trypanosoma brucei) (UniProt Q386H7)
Assay: affinity purification with mass spectrometry

KKIP8 (from UniProt Q57ZJ6) was tested. Which binding did it give?
Its binding is “binds”.

Results are given in words; binding and its absence hold for the method and conditions named. In cells and extracts the contact can be indirect. These calls come from enrichment with a bait or labelling near it, and not all partners need be listed.
